Experimental findings from PubChem BioAssay AID248 (DTP/NCI, 2004) are described below.

The structures appear in SMILES notation. The list is a part of this screen's results and no random one: it gathers tests that were run many times, whatever their T/C, doses with no T/C, and many T/C values between a quarter and a half above the control. Further doses and runs are listed elsewhere. T/C: endpoint of the treated group in % of that of the vehicle group. Some doses have a count of surviving animals in place of a T/C: the source files T/C as zero there, which appears to mark a toxic dose or a test without result, not a measured value. Some doses without a T/C left all or most animals alive at the check, yet need not have been tolerated: the source hardly ever lists a survival T/C far under the control, and the zero likely stands for such cases as well. Survivors were counted at the toxicity check, usually on the fifth day, unless a day is given; later deaths do not show. Schedules are NCI's codes, taken here to give the interval after Q, in days (D) or hours (H), and the number of doses after X. Brackets with × count equal records among those shown. Some entries were tested several times; their values stand side by side, smallest first. For survival time, this PubChem deposit counts one and a half times the control or more as active, and values a quarter to a half above the control carry no call in these data; other NCI protocols may use other cut-offs. Some T/C values are followed by the survivors on the day toxicity was checked, most often the fifth; where none is given, no animal had died by that day.

For the assay, the system named is L1210 leukemia ip in BDF1 mice, survival T/C. As to the kind of experiment: NCI In Vivo Anticancer Drug Screen. Data for tumor model L1210 Leukemia (intraperitoneal) in B6D2F1 (BDF1) mice. The settings on record: T/C endpoint: mean survival time, higher T/C = longer survival.
Setting [1] is: dose: 200.0 mg/kg/injection, schedule: Q01DX009 (ip), vehicle: Klucel (hydroxypropylcellulose) (HPC).
Setting [2] is: dose: 400.0 mg/kg/injection, schedule: Q04DX003 (ip), vehicle: Klucel (hydroxypropylcellulose) (HPC).
The mark [3] stands for this setting: dose: 400.0 mg/kg/injection, schedule: Q01DX009 (ip), vehicle: saline with Tween-80.
Where [4] appears, read: dose: 40.0 mg/kg/injection, schedule: Q01DX001 (ip), vehicle: saline.
Where [5] appears, read: dose: 80.0 mg/kg/injection, schedule: Q01DX001 (ip), vehicle: saline.
Where [6] appears, read: dose: 100.0 mg/kg/injection, schedule: Q04DX002 (ip), vehicle: saline with Tween-80.
[7] abbreviates: dose: 100.0 mg/kg/injection, schedule: Q01DX009 (ip), vehicle: Klucel (hydroxypropylcellulose) (HPC).
The mark [8] stands for this setting: dose: 400.0 mg/kg/injection, schedule: Q01DX009 (ip), vehicle: Klucel (hydroxypropylcellulose) (HPC).
[9] abbreviates: dose: 100.0 mg/kg/injection, schedule: Q01DX009 (ip), vehicle: saline.
[10] abbreviates: dose: 200.0 mg/kg/injection, schedule: Q01DX009 (ip), vehicle: saline.
[11] abbreviates: dose: 400.0 mg/kg/injection, schedule: Q01DX009 (ip), vehicle: saline.

On to `C[n+]1c(-c2cc(C(F)(F)F)cc(C(F)(F)F)c2)c2cc(N)ccc2c2ccc(N)cc21`, for which the T/C (dose: 50.0 mg/kg/injection, schedule: Q01DX005 (ip), vehicle: water) is 134 % of control. Moreover, the survivor count was 4 of 4 (dose: 200.0 mg/kg/injection, schedule: Q01DX005 (ip), vehicle: water) and 0 of 4 (dose: 400.0 mg/kg/injection, schedule: Q01DX005 (ip), vehicle: water).
On to `CN1CCc2ccccc2C1Cc1cc(OCc2ccccc2)ccc1N` (stereo not drawn), for which the survivor count (dose: 100.0 mg/kg/injection, schedule: Q01DX001 (ip), vehicle: carboxymethylcellulose (CMC)) was 2 of 4; the survivor count (dose: 200.0 mg/kg/injection, schedule: Q01DX001 (ip), vehicle: carboxymethylcellulose (CMC)) is given as 1 of 4; the survivor count (dose: 400.0 mg/kg/injection, schedule: Q01DX001 (ip), vehicle: carboxymethylcellulose (CMC)) is 0 of 4.
For the compound `Clc1nn2cnnc2c2ccccc12`, the survivor count is recorded as 1 of 4 (dose: 40.0 mg/kg/injection, schedule: Q04DX003 (ip), vehicle: saline) and 0 of 4 (dose: 80.0 mg/kg/injection, schedule: Q04DX003 (ip), vehicle: saline).
On to `CCN(CC)CCCC#CCN1CCCC1`, for which the survivor count runs as follows: under setting [1], 4 of 6; under setting [2], 0 of 6.
As for `CCN(CC)C1=C(Cl)C(=O)c2ccccc2C1=O`, under setting [3], the survivor count is 2 of 6.
`CCOC(=O)C1=NC=NC1=[N+]=[N-]`: the survivor count is listed as 0 of 6 under setting [4] and 0 of 6 under setting [5].
With `COc1cc([N+](=O)[O-])ccc1S(=O)(=O)Cl`, the survivor count runs as follows: (dose: 100.0 mg/kg/injection, schedule: Q01DX009 (ip), vehicle: saline with Tween-80) 2 of 6; under setting [6], 3 of 3; (dose: 200.0 mg/kg/injection, schedule: Q01DX001 (ip), vehicle: saline with Tween-80) 0 of 6; (dose: 200.0 mg/kg/injection, schedule: Q04DX002 (ip), vehicle: saline with Tween-80) 1 of 3 and 2 of 6; (dose: 400.0 mg/kg/injection, schedule: Q04DX002 (ip), vehicle: saline with Tween-80) 0 of 3 and 1 of 6. Also, the T/C under setting [6] is 95 [5 of 6 alive], 96, 109 % of control.
Regarding `Cc1c(NC(=O)Nc2cccc(C(F)(F)F)c2)c(=O)n(-c2ccccc2)n1C`, the survivor count is, setting by setting: under setting [7], 6 of 6 (2×); under setting [8], 5 of 6.
For `Cn1c(N)c(N=O)c(=O)n(C)c1=O`, the survivor count runs as follows: (dose: 720.0 mg/kg/injection, schedule: Q01DX009 (ip), vehicle: saline with Tween-80) 1 of 6; (dose: 1440.0 mg/kg/injection, schedule: Q04DX003 (ip), vehicle: saline with Tween-80) 2 of 6; (dose: 2880.0 mg/kg/injection, schedule: Q04DX003 (ip), vehicle: saline with Tween-80) 0 of 6.
Regarding `CCCCC#CC(=O)OCCCCC`, the survivor count under setting [3] is 0 of 6.
Turning to `CC1(C)N=C(N)N=C(N)N1c1cccc(OCCOc2cccc(NC(=O)CBr)c2)c1`, the survivor count by setting is: (dose: 40.0 mg/kg/injection, schedule: Q01DX009 (ip), vehicle: other) 0 of 6; under setting [5], 1 of 6; (dose: 80.0 mg/kg/injection, schedule: Q01DX009 (ip), vehicle: other) 0 of 6; (dose: 100.0 mg/kg/injection, schedule: Q01DX001 (ip), vehicle: saline) 1 of 6; (dose: 200.0 mg/kg/injection, schedule: Q01DX001 (ip), vehicle: saline) 0 of 6; (dose: 400.0 mg/kg/injection, schedule: Q01DX001 (ip), vehicle: saline) 0 of 6.
As to `Cc1cc(N(C)C)cc(C)c1N=Nc1cc[n+]([O-])cc1`, the survivor count is listed as 6 of 6 (dose: 100.0 mg/kg/injection, schedule: Q04DX003 (ip), vehicle: saline with Tween-80); 1 of 6 (dose: 200.0 mg/kg/injection, schedule: Q04DX003 (ip), vehicle: saline with Tween-80); 0 of 6 under setting [3]; 0 of 6 (dose: 400.0 mg/kg/injection, schedule: Q04DX003 (ip), vehicle: saline with Tween-80).
For the compound `Nc1cccs1`, the T/C by setting is: (dose: 32.5 mg/kg/injection, schedule: Q01DX009 (ip), vehicle: saline) 125 % of control [4 of 6 alive]; (dose: 65.0 mg/kg/injection, schedule: Q01DX009 (ip), vehicle: saline) 136 % of control; under setting [9], 125 % of control; (dose: 150.0 mg/kg/injection, schedule: Q01DX009 (ip), vehicle: saline) 129 % of control. For the same compound, the survivor count runs as follows: under setting [10], 3 of 6; under setting [11], 0 of 6.
For the compound `CCOC(=O)N/N=C(\C)c1ccc(OC)cc1`, the survivor count under setting [8] is listed as 5 of 6.
On to `CC1(C)CS(=O)(=O)CC1=O`, for which the survivor count is, setting by setting: (dose: 100.0 mg/kg/injection, schedule: Q04DX003 (ip), vehicle: saline) 1 of 6; (dose: 200.0 mg/kg/injection, schedule: Q04DX003 (ip), vehicle: saline) 0 of 6; (dose: 400.0 mg/kg/injection, schedule: Q04DX003 (ip), vehicle: saline) 0 of 6.
Take `Cc1cc(=O)[nH]c(N/N=C/c2ccccc2)n1`: the survivor count (dose: 200.0 mg/kg/injection, schedule: Q01DX009 (ip), vehicle: gum acacia) is 6 of 6.
In the case of `O=C1CCN(Cl)C(=O)N1Cl`, the survivor count is, setting by setting: under setting [4], 2 of 6; under setting [5], 0 of 6.
With `OC1(C#CC2(O)CCCCC2)CCCCC1`, the survivor count under setting [2] was 6 of 6.
In the case of `C/C(=N\N=C(/C)c1ccc(Cl)cc1)c1ccc(Cl)cc1`, the survivor count under setting [8] was 6 of 6.
The same measure, in the same setting: the value for `COC(=O)C1C(C(=O)OC)C2(Cl)C(Cl)=C(Cl)C1(Cl)C2(Cl)Cl` (stereo not drawn) was 2 of 6.
For `CC1(C)N=C(N)N=C(N)N1c1ccccc1I`, the survivor count was 2 of 6 under setting [7], 0 of 6 under setting [1] and 0 of 6 under setting [8].
Consider `COc1ccc(COC(=O)Nc2ccccc2Cl)cc1`, for which the survivor count (dose: 200.0 mg/kg/injection, schedule: Q04DX002 (ip), vehicle: Klucel (hydroxypropylcellulose) (HPC)) was 3 of 3.
As for `CC(=O)OCc1c(O)c2c(c(O)c1COC(C)=O)C(=O)C=CC2=O`, the survivor count reads like this: (dose: 25.0 mg/kg/injection, schedule: Q01DX009 (ip), vehicle: saline) 4 of 6; (dose: 50.0 mg/kg/injection, schedule: Q01DX009 (ip), vehicle: saline) 3 of 6; under setting [9], 0 of 6; under setting [10], 0 of 6; under setting [11], 0 of 6.
Regarding `O=NN(CCCl)C(=O)NC1CCC(CC(=O)O)CC1` (stereo not drawn), the T/C is, setting by setting: (dose: 8.0 mg/kg/injection, schedule: Q01DX001 (ip), vehicle: Klucel (hydroxypropylcellulose) (HPC)) 144 % of control; (dose: 10.0 mg/kg/injection, schedule: Q01DX001 (ip), vehicle: carboxymethylcellulose (CMC)) 135 and 142 % of control. Moreover, the survivor count is 9 of 10 and 10 of 10 (dose: 90.0 mg/kg/injection, schedule: Q01DX001 (ip), vehicle: Klucel (hydroxypropylcellulose) (HPC)); 9 of 10 (dose: 90.0 mg/kg/injection, schedule: Q01DX001 (ip), vehicle: carboxymethylcellulose (CMC)); 4 of 10 (dose: 133.0 mg/kg/injection, schedule: Q01DX001 (ip), vehicle: Klucel (hydroxypropylcellulose) (HPC)); 0 of 10 (dose: 200.0 mg/kg/injection, schedule: Q01DX001 (ip), vehicle: Klucel (hydroxypropylcellulose) (HPC)); 0 of 10 (dose: 300.0 mg/kg/injection, schedule: Q01DX001 (ip), vehicle: Klucel (hydroxypropylcellulose) (HPC)).
Regarding `N#CC1CS(=O)(=O)C1`, the survivor count under setting [11] is recorded as 3 of 6.
